Source: the supplement of paper PMC8728848
This is one part of the list.

Key:
Assay in all cases: glycan array binding signal (z-score within array); higher = stronger binding
Details in all cases: glycan notation: IUPAC condensed, linker removed
Neu5Ac(a2-3)GalNAc = target: Neu5Ac(a2-3)GalNAc
In short: (§1)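 From the Consortium for Functional Glycomics database, 3228 arrays were curated, keeping only those whose protein sequence was available. Binding is given as a within-array Z-score averaged across arrays sharing a protein sequence and across linkers. Negative Z-scores can be read as non-binding.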

[1] = target: Neu5Ac(a2-3)GalNAc(b1-4)GlcNAc
In short: as §1

[2] = target: Neu5Ac(a2-3)[GalNAc(b1-4)]Gal(b1-4)Glc
In short: as §1

[3] = target: Neu5Ac(a2-3)[GalNAc(b1-4)]Gal(b1-4)GlcNAc
In short: as §1

[4] = target: Neu5Ac(a2-3)[GalNAc(b1-4)]Gal(b1-4)GlcNAc(b1-3)GalNAc
In short: as §1

[5] = target: Neu5Ac(a2-3)[Neu5Ac(a2-6)]GalNAc
In short: as §1

Neu5Ac(a2-6)Gal = target: Neu5Ac(a2-6)Gal
In short: as §1

[6] = target: Neu5Ac(a2-6)Gal(b1-3)GlcNAc(b1-3)[Gal(b1-4)GlcNAc(b1-6)]Gal(b1-4)Glc
In short: as §1

Neu5Ac(a2-6)Gal(b1-4)Glc = target: Neu5Ac(a2-6)Gal(b1-4)Glc
In short: as §1

[7] = target: Neu5Ac(a2-6)Gal(b1-4)GlcNAc
In short: as §1

[8] = target: Neu5Ac(a2-6)Gal(b1-4)GlcNAc(b1-2)Man
In short: as §1

[9] = target: Neu5Ac(a2-6)Gal(b1-4)GlcNAc(b1-2)Man(a1-3)Man(b1-4)GlcNAc(b1-4)GlcNAc
In short: as §1

[10] = target: Neu5Ac(a2-6)Gal(b1-4)GlcNAc(b1-2)Man(a1-3)[Gal(b1-4)GlcNAc(b1-2)Man(a1-6)]Man(b1-4)GlcNAc(b1-4)GlcNAc
In short: as §1

[11] = target: Neu5Ac(a2-6)Gal(b1-4)GlcNAc(b1-2)Man(a1-3)[GlcNAc(b1-2)Man(a1-6)]Man(b1-4)GlcNAc(b1-4)GlcNAc
In short: as §1

[12] = target: Neu5Ac(a2-6)Gal(b1-4)GlcNAc(b1-2)Man(a1-3)[GlcNAc(b1-4)][Neu5Ac(a2-6)Gal(b1-4)GlcNAc(b1-2)Man(a1-6)]Man(b1-4)GlcNAc(b1-4)GlcNAc
In short: as §1

[13] = target: Neu5Ac(a2-6)Gal(b1-4)GlcNAc(b1-2)Man(a1-3)[Man(a1-6)]Man(b1-4)GlcNAc(b1-4)GlcNAc
In short: as §1

[14] = target: Neu5Ac(a2-6)Gal(b1-4)GlcNAc(b1-2)Man(a1-3)[Neu5Ac(a2-3)Gal(b1-4)GlcNAc(b1-2)Man(a1-6)]Man(b1-4)GlcNAc(b1-4)GlcNAc
In short: as §1

[15] = target: Neu5Ac(a2-6)Gal(b1-4)GlcNAc(b1-2)Man(a1-3)[Neu5Ac(a2-6)Gal(b1-4)GlcNAc(b1-2)Man(a1-6)]Man(b1-4)GlcNAc(b1-4)GlcNAc
In short: as §1

[16] = target: Neu5Ac(a2-6)Gal(b1-4)GlcNAc(b1-2)Man(a1-3)[Neu5Ac(a2-6)Gal(b1-4)GlcNAc(b1-2)Man(a1-6)]Man(b1-4)GlcNAc(b1-4)[Fuc(a1-6)]GlcNAc
In short: as §1

[17] = target: Neu5Ac(a2-6)Gal(b1-4)GlcNAc(b1-2)Man(a1-6)Man(b1-4)GlcNAc(b1-4)GlcNAc
In short: as §1

[18] = target: Neu5Ac(a2-6)Gal(b1-4)GlcNAc(b1-2)Man(a1-6)[Gal(b1-4)GlcNAc(b1-2)Man(a1-3)]Man(b1-4)GlcNAc(b1-4)GlcNAc
In short: as §1

[19] = target: Neu5Ac(a2-6)Gal(b1-4)GlcNAc(b1-2)Man(a1-6)[GlcNAc(b1-2)Man(a1-3)]Man(b1-4)GlcNAc(b1-4)GlcNAc
In short: as §1

[20] = target: Neu5Ac(a2-6)Gal(b1-4)GlcNAc(b1-2)Man(a1-6)[Man(a1-3)]Man(b1-4)GlcNAc(b1-4)GlcNAc
In short: as §1

[21] = target: Neu5Ac(a2-6)Gal(b1-4)GlcNAc(b1-2)[Neu5Ac(a2-6)Gal(b1-4)GlcNAc(b1-4)]Man(a1-3)[GlcNAc(b1-4)][Neu5Ac(a2-6)Gal(b1-4)GlcNAc(b1-2)[Neu5Ac(a2-6)Gal(b1-4)GlcNAc(b1-6)]Man(a1-6)]Man(b1-4)GlcNAc(b1-4)GlcNAc
In short: as §1

[22] = target: Neu5Ac(a2-6)Gal(b1-4)GlcNAc(b1-2)[Neu5Ac(a2-6)Gal(b1-4)GlcNAc(b1-4)]Man(a1-3)[GlcNAc(b1-4)][Neu5Ac(a2-6)Gal(b1-4)GlcNAc(b1-4)Man(a1-6)]Man(b1-4)GlcNAc(b1-4)GlcNAc
In short: as §1

[23] = target: Neu5Ac(a2-6)Gal(b1-4)GlcNAc(b1-2)[Neu5Ac(a2-6)Gal(b1-4)GlcNAc(b1-6)]Man(a1-6)[Neu5Ac(a2-6)Gal(b1-4)GlcNAc(b1-2)Man(a1-3)][GlcNAc(b1-4)]Man(b1-4)GlcNAc(b1-4)GlcNAc
In short: as §1

[24] = target: Neu5Ac(a2-6)Gal(b1-4)GlcNAc(b1-3)Gal(b1-3)GlcNAc
In short: as §1

[25] = target: Neu5Ac(a2-6)Gal(b1-4)GlcNAc(b1-3)Gal(b1-4)GlcNAc
In short: as §1

[26] = target: Neu5Ac(a2-6)Gal(b1-4)GlcNAc(b1-3)Gal(b1-4)GlcNAc(b1-2)Man(a1-3)[Neu5Ac(a2-6)Gal(b1-4)GlcNAc(b1-3)Gal(b1-4)GlcNAc(b1-2)Man(a1-6)]GalNAc
In short: as §1

[27] = target: Neu5Ac(a2-6)Gal(b1-4)GlcNAc(b1-3)Gal(b1-4)GlcNAc(b1-3)Gal(b1-4)GlcNAc
In short: as §1

[28] = target: Neu5Ac(a2-6)Gal(b1-4)GlcNAc(b1-3)Gal(b1-4)GlcNAc(b1-3)Gal(b1-4)GlcNAc(b1-2)Man(a1-3)[Neu5Ac(a2-6)Gal(b1-4)GlcNAc(b1-3)Gal(b1-4)GlcNAc(b1-3)Gal(b1-4)GlcNAc(b1-2)Man(a1-6)]GalNAc
In short: as §1

[29] = target: Neu5Ac(a2-6)Gal(b1-4)GlcNAc(b1-3)Gal(b1-4)GlcNAc(b1-3)GalNAc
In short: as §1

[30] = target: Neu5Ac(a2-6)Gal(b1-4)GlcNAc(b1-3)Gal(b1-4)GlcNAc(b1-3)[Neu5Ac(a2-6)Gal(b1-4)GlcNAc(b1-3)Gal(b1-4)GlcNAc(b1-6)]GalNAc
In short: as §1

[31] = target: Neu5Ac(a2-6)Gal(b1-4)GlcNAc(b1-3)Gal(b1-4)GlcNAc(b1-6)[Gal(b1-3)]GalNAc
In short: as §1

[32] = target: Neu5Ac(a2-6)Gal(b1-4)GlcNAc(b1-3)Gal(b1-4)[Fuc(a1-3)]GlcNAc(b1-3)Gal(b1-4)[Fuc(a1-3)]GlcNAc
In short: as §1

[33] = target: Neu5Ac(a2-6)Gal(b1-4)GlcNAc(b1-3)GalNAc
In short: as §1

[34] = target: Neu5Ac(a2-6)Gal(b1-4)GlcNAc(b1-3)[Neu5Ac(a2-6)Gal(b1-4)GlcNAc(b1-6)]GalNAc
In short: as §1

[35] = target: Neu5Ac(a2-6)Gal(b1-4)GlcNAc(b1-6)GalNAc
In short: as §1

[36] = target: Neu5Ac(a2-6)Gal(b1-4)GlcNAc(b1-6)[Gal(b1-3)GlcNAc(b1-3)]Gal(b1-4)Glc
In short: as §1

[37] = target: Neu5Ac(a2-6)Gal(b1-4)GlcNAc(b1-6)[Gal(b1-3)]GalNAc
In short: as §1

[38] = target: Neu5Ac(a2-6)Gal(b1-4)GlcNAc6S
In short: as §1

Neu5Ac(a2-6)GalNAc = target: Neu5Ac(a2-6)GalNAc
In short: as §1

[39] = target: Neu5Ac(a2-6)GalNAc(b1-4)GlcNAc
In short: as §1

[40] = target: Neu5Ac(a2-6)GalNAc(b1-4)GlcNAc6S
In short: as §1

[41] = target: Neu5Ac(a2-6)GlcNAc(b1-4)GlcNAc
In short: as §1

B1: PhypaEULS3 (Physcomitrella patens) (protein)
chain: MLPVRLHCKADPNFNLAAVPGQGPVMVPFSPNDDFQVWYKDVTMSTRVKDETGSSAFSLINKATGQALRHAPEDLAQCLLADYDSNALDQTVLWTMSEDMGQGYCCIRLASQITRNLDVFRGDKKSGGVKEGSPVITFAWKKQDNQIWKMITAILEQKLISEEDLNSAVDHHHHHH
glycan array binding signal (z-score) (Neu5Ac(a2-3)GalNAc): -0.098
glycan array binding signal (z-score) [1]: 0.953
glycan array binding signal (z-score) [2]: -0.823
glycan array binding signal (z-score) [3]: -0.772
glycan array binding signal (z-score) [4]: 1.57
glycan array binding signal (z-score) [5]: 1.16
glycan array binding signal (z-score) (Neu5Ac(a2-6)Gal): -1.6
glycan array binding signal (z-score) [6]: -1.4
glycan array binding signal (z-score) (Neu5Ac(a2-6)Gal(b1-4)Glc): -0.824
glycan array binding signal (z-score) [7]: 0.116
glycan array binding signal (z-score) [8]: 0.666
glycan array binding signal (z-score) [9]: -1.21
glycan array binding signal (z-score) [10]: 0.533
glycan array binding signal (z-score) [11]: 0.429
glycan array binding signal (z-score) [12]: -0.107
glycan array binding signal (z-score) [13]: -0.436
glycan array binding signal (z-score) [14]: -0.311
glycan array binding signal (z-score) [15]: 0.126
glycan array binding signal (z-score) [16]: 0.118
glycan array binding signal (z-score) [17]: -0.203
glycan array binding signal (z-score) [18]: -0.035
glycan array binding signal (z-score) [19]: 0.801
glycan array binding signal (z-score) [20]: -0.347
glycan array binding signal (z-score) [21]: 0.449
glycan array binding signal (z-score) [22]: 1.38
glycan array binding signal (z-score) [23]: 0.337
glycan array binding signal (z-score) [24]: 0.4
glycan array binding signal (z-score) [25]: -0.193
glycan array binding signal (z-score) [26]: -0.046
glycan array binding signal (z-score) [27]: 0.398
glycan array binding signal (z-score) [28]: 0.347
glycan array binding signal (z-score) [29]: 0.528
glycan array binding signal (z-score) [30]: 0.824
glycan array binding signal (z-score) [31]: -0.551
glycan array binding signal (z-score) [32]: -0.366
glycan array binding signal (z-score) [33]: 0.678
glycan array binding signal (z-score) [34]: -0.629
glycan array binding signal (z-score) [35]: 0.432
glycan array binding signal (z-score) [36]: 0.339
glycan array binding signal (z-score) [37]: -0.7
glycan array binding signal (z-score) [38]: 2.2
glycan array binding signal (z-score) (Neu5Ac(a2-6)GalNAc): 0.79
glycan array binding signal (z-score) [39]: 0.235
glycan array binding signal (z-score) [40]: 1.7
glycan array binding signal (z-score) [41]: -0.739
